This continues a long series; more values of the same kind are listed elsewhere.
Assay: Drying behaviour of crystallisates in dependence on residual moisture and product purity (tempering in sealed vials, visual points classification)
Type: physicochemical
Parameters: key: 5 points=sample unchanged; 4 points=sample compacted/started to dissolve; 3 points=sample visibly started to dissolve; 2 points=sample cloudy highly viscous solution; 1 point=sample dissolved to clear solution
Details: sealed vial, shaken
Method: This dependency is shown by the following example for determining the drying behaviour of crystallisates in dependence on residual moisture and product purity.
A DTPMP solid isolated by recrystallisation is characterised by residues of adhering mother liquor via the quality parameters listed in the following table. Determination of the residual moisture content by means of a halogen dryer HB 43 S/Mettler Toledo is carried out isothermally at the indicated temperature using the shutoff criterion 4 (AK4=mean weight loss is <1 mg per 90 seconds):
After a purification step, which consists in suspending the solid in water and then separating it off by means of a filtering centrifuge, the following quality criteria are obtained:
The adhering residual moisture is removed stepwise from these solid samples in a rotary evaporator at 40° C. and 5 mbar vacuum, so that a series of samples with decreasing residual moisture content is prepared from each of the two purity grades (unwashed and washed).
4 ml borosilicate vials are filled with this sample material and the filling level is adjusted to ⅔ of the height of the glass by gentle tapping. In order to minimise evaporative losses, the screw cap of each vial is additionally sealed with a polyethylene film. All the samples are shaken in parallel in a tempering block on a heating and cooling shaker ThermoTwister comfort/Quantifoil Instruments GmbH for a defined period at a defined temperature and then assessed visually. Classification is made according to the following points system: […]

[1] = Temperature 35 °C, test duration 24 h
[2] = Temperature 40 °C, test duration 24 h
[3] = Temperature 45 °C, test duration 24 h
[4] = Temperature 50 °C, test duration 24 h
[5] = Temperature 55 °C, test duration 24 h
[6] = Temperature 60 °C, test duration 24 h
[7] = Temperature 65 °C, test duration 5 h
[8] = Temperature 70 °C, test duration 5 h
[9] = Temperature 75 °C, test duration 5 h
[10] = Temperature 80 °C, test duration 5 h
[11] = Temperature 85 °C, test duration 5 h
[12] = Temperature 90 °C, test duration 5 h

Row | Visual classification at the end of the tempering step (points system) [1] | Visual classification at the end of the tempering step (points system) [2] | Visual classification at the end of the tempering step (points system) [3] | Visual classification at the end of the tempering step (points system) [4] | Visual classification at the end of the tempering step (points system) [5] | Visual classification at the end of the tempering step (points system) [6] | Visual classification at the end of the tempering step (points system) [7] | Visual classification at the end of the tempering step (points system) [8] | Visual classification at the end of the tempering step (points system) [9] | Visual classification at the end of the tempering step (points system) [10] | Visual classification at the end of the tempering step (points system) [11] | Visual classification at the end of the tempering step (points system) [12] | SMILES
1 | 5 | 5 | 5 | 5 | 5 | 5 | 3 | 1 | 1 | 1 | 1 | 1 | O=P(O)(O)CN(CCN(CP(=O)(O)O)CP(=O)(O)O)CCN(CP(=O)(O)O)CP(=O)(O)O [washed quality 36 [% by mass] residual moisture]
2 | 5 | 5 | 5 | 5 | 4 | 5 | 4 | 3 | 3 | 2 | 2 | 2 | O=P(O)(O)CN(CCN(CP(=O)(O)O)CP(=O)(O)O)CCN(CP(=O)(O)O)CP(=O)(O)O [washed quality 26 [% by mass] residual moisture]
3 | 5 | 5 | 5 | 5 | 5 | 5 | 3 | 1 | 1 | 1 | 1 | 1 | O=P(O)(O)CN(CCN(CP(=O)(O)O)CP(=O)(O)O)CCN(CP(=O)(O)O)CP(=O)(O)O [washed quality 47 [% by mass] residual moisture]
4 | 5 | 5 | 5 | 5 | 5 | 5 | 4 | 3 | 3 | 2 | 2 | 2 | O=P(O)(O)CN(CCN(CP(=O)(O)O)CP(=O)(O)O)CCN(CP(=O)(O)O)CP(=O)(O)O [washed quality 32 [% by mass] residual moisture]
5 | 5 | 5 | 5 | 5 | 5 | 5 | 5 | 5 | 5 | 5 | 5 | 5 | O=P(O)(O)CN(CCN(CP(=O)(O)O)CP(=O)(O)O)CCN(CP(=O)(O)O)CP(=O)(O)O [washed quality 14 [% by mass] residual moisture]
6 |  | 5 | 5 | 5 | 5 | 3 | 1 | 1 | 1 |  |  |  | O=P(O)(O)CN(CCN(CP(=O)(O)O)CP(=O)(O)O)CCN(CP(=O)(O)O)CP(=O)(O)O [washed quality 53 [% by mass] residual moisture]

— US10590153B2, “Process for producing crystalline DTPMP” (Zschimmer & Schwarz Mohsdorf GmbH & Co. KG, priority 2014, dated 2020)
